Source: article PMC5751621
No constants are given. Whether binding was seen depends on the method and setting.

Protein sequences, listed by entry. Tags and fused reporters are not part of them. Residues count along the entry.
UniProt P02769, residues 25-607: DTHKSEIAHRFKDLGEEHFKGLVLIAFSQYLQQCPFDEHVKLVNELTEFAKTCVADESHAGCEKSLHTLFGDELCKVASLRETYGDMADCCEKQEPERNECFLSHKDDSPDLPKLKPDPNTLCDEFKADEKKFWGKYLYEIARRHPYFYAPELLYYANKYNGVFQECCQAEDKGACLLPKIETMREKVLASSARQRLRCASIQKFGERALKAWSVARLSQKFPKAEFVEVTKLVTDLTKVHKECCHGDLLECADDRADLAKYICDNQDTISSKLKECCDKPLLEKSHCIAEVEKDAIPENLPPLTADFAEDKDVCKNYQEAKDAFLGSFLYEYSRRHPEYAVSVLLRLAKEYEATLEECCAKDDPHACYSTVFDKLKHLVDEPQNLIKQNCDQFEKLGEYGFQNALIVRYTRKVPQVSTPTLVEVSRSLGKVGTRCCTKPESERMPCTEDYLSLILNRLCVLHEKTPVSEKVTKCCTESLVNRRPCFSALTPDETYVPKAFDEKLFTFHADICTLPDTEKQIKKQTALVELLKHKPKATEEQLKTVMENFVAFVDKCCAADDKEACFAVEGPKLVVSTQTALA

Molecular target: bovine serum albumin (bovine) (UniProt P02769)
Experiment: SPR; SPR imaging (Horiba SPRi Lab+); BSA (1%) on the naked areas of the sensor; lectins injected at 95 nM in solution, covalently linked to gold NPs or captured by antibody-functionalized gold NPs; 10 mM HEPES pH 7.4, 35 uL/min; read after washing with buffer; both purified

binding: no binding (tested: 95 nM)
B1: peanut agglutinin (protein, UniProt P02872 24-273)
chain: AETVSFNFNSFSEGNPAINFQGDVTVLSNGNIQLTNLNKVNSVGRVLYAMPVRIWSSATGNVASFLTSFSFEMKDIKDYDPADGIIFFIAPEDTQIPAGSIGGGTLGVSDTKGAGHFVGVEFDTYSNSEYNDPPTDHVGIDVNSVDSVKTVPWNSVSGAVVKVTVIYDSSTKTLSVAVTNDNGDITTIAQVVDLKAKLPERVKFGFSASGSLGGRQIHLIRSWSFTSTLITTTRRSIDNNEKKIMNMASA
